This note sets out measurements from publication PMC8693076.

The chains behind the UniProt entries cited, without tags or fusion partners. Where a name states a change or a piece, a line headed by the entry shows the natural chain unless it says otherwise.
UniProt Q9GZV5: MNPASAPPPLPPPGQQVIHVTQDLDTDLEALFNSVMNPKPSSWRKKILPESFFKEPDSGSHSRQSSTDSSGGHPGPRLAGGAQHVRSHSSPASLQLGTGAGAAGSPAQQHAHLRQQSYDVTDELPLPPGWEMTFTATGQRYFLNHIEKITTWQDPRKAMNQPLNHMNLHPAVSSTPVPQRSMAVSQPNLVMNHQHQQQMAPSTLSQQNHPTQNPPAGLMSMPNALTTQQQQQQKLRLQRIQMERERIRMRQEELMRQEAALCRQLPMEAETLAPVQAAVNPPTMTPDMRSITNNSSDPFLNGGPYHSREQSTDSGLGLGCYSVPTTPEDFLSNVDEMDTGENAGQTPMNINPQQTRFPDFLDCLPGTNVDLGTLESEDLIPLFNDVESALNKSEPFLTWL

These are yes or no findings as the source states them, for the method shown. Binding seen in cells or lysates may run through a third protein. These calls come from enrichment with a bait or labelling near it, and not all partners need be listed.

This assay has as its target BirA^R118G‐TAZ fusion protein (UniProt Q9GZV5). Nature of the assay: proximity labelling; BioID: BirA R118G-TAZ stably expressed in LN229 cells, 0.5 µM biotin 24 h, streptavidin Dynabeads, nano LC-MS/MS; controls BirA R118G alone or vector.

B1: ASPP2 (protein, UniProt Q13625 1-1128)
chain: MMPMFLTVYLSNNEQHFTEVPVTPETICRDVVDLCKEPGESDCHLAEVWCGSERPVADNERMFDVLQRFGSQRNEVRFFLRHERPPGRDIVSGPRSQDPSLKRNGVKVPGEYRRKENGVNSPRMDLTLAELQEMASRQQQQIEAQQQLLATKEQRLKFLKQQDQRQQQQVAEQEKLKRLKEIAENQEAKLKKVRALKGHVEQKRLSNGKLVEEIEQMNNLFQQKQRELVLAVSKVEELTRQLEMLKNGRIDSHHDNQSAVAELDRLYKELQLRNKLNQEQNAKLQQQRECLNKRNSEVAVMDKRVNELRDRLWKKKAALQQKENLPVSSDGNLPQQAASAPSRVAAVGPYIQSSTMPRMPSRPELLVKPALPDGSLVIQASEGPMKIQTLPNMRSGAASQTKGSKIHPVGPDWSPSNADLFPSQGSASVPQSTGNALDQVDDGEVPLREKEKKVRPFSMFDAVDQSNAPPSFGTLRKNQSSEDILRDAQVANKNVAKVPPPVPTKPKQINLPYFGQTNQPPSDIKPDGSSQQLSTVVPSMGTKPKPAGQQPRVLLSPSIPSVGQDQTLSPGSKQESPPAAAVRPFTPQPSKDTLLPPFRKPQTVAASSIYSMYTQQQAPGKNFQQAVQSALTKTHTRGPHFSSVYGKPVIAAAQNQQQHPENIYSNSQGKPGSPEPETEPVSSVQENHENERIPRPLSPTKLLPFLSNPYRNQSDADLEALRKKLSNAPRPLKKRSSITEPEGPNGPNIQKLLYQRTTIAAMETISVPSYPSKSASVTASSESPVEIQNPYLHVEPEKEVVSLVPESLSPEDVGNASTENSDMPAPSPGLDYEPEGVPDNSPNLQNNPEEPNPEAPHVLDVYLEEYPPYPPPPYPSGEPEGPGEDSVSMRPPEITGQVSLPPGKRTNLRKTGSERIAHGMRVKFNPLALLLDSSLEGEFDLVQRIIYEVDDPSLPNDEGITALHNAVCAGHTEIVKFLVQFGVNVNAADSDGWTPLHCAASCNNVQVCKFLVESGAAVFAMTYSDMQTAADKCEEMEEGYTQCSQFLYGVQEKMGIMNKGVIYALWDYEPQNDDELPMKEGDCMTIIHREDEDEIEWWWARLNDKEGYVPRNLLGLYPRIKPRQRSLA
B1: the binding result is “binds”.

B2: Non‐POU domain‐containing octamer‐binding protein (NONO), endogenous, LN229 (protein, UniProt Q15233 1-471)
chain: MQSNKTFNLEKQNHTPRKHHQHHHQQQHHQQQQQQPPPPPIPANGQQASSQNEGLTIDLKNFRKPGEKTFTQRSRLFVGNLPPDITEEEMRKLFEKYGKAGEVFIHKDKGFGFIRLETRTLAEIAKVELDNMPLRGKQLRVRFACHSASLTVRNLPQYVSNELLEEAFSVFGQVERAVVIVDDRGRPSGKGIVEFSGKPAARKALDRCSEGSFLLTTFPRPVTVEPMDQLDDEEGLPEKLVIKNQQFHKEREQPPRFAQPGSFEYEYAMRWKALIEMEKQQQDQVDRNIKEAREKLEMEMEAARHEHQVMLMRQDLMRRQEELRRMEELHNQEVQKRKQLELRQEEERRRREEEMRRQQEEMMRRQQEGFKGTFPDAREQEIRMGQMAMGGAMGINNRGAMPPAPVPAGTPAPPGPATMMPDGTLGLTPPTTERFGQAATMEGIGAIGGTPPAFNRAAPGAEFAPNKRRRY
For the molecule B2, the binding result is recorded as “binds”.

B3: AMOTL1 (protein, UniProt Q8IY63 1-956)
chain: MWRAKLRRGTCEPAVKGSPSACYSPSSPVQVLEDSTYFSPDFQLYSGRHETSALTVEATSSIREKVVEDPLCNFHSPNFLRISEVEMRGSEDAAAGTVLQRLIQEQLRYGTPTENMNLLAIQHQATGSAGPAHPTNNFSSTENLTQEDPQMVYQSARQEPQGQEHQVDNTVMEKQVRSTQPQQNNEELPTYEEAKAQSQFFRGQQQQQQQQGAVGHGYYMAGGTSQKSRTEGRPTVNRANSGQAHKDEALKELKQGHVRSLSERIMQLSLERNGAKQHLPGSGNGKGFKVGGGPSPAQPAGKVLDPRGPPPEYPFKTKQMMSPVSKTQEHGLFYGDQHPGMLHEMVKPYPAPQPVRTDVAVLRYQPPPEYGVTSRPCQLPFPSTMQQHSPMSSQTSSASGPLHSVSLPLPLPMALGAPQPPPAASPSQQLGPDAFAIVERAQQMVEILTEENRVLHQELQGYYDNADKLHKFEKELQRISEAYESLVKSTTKRESLDKAMRNKLEGEIRRLHDFNRDLRDRLETANRQLSSREYEGHEDKAAEGHYASQNKEFLKEKEKLEMELAAVRTASEDHRRHIEILDQALSNAQARVIKLEEELREKQAYVEKVEKLQQALTQLQSACEKREQMERRLRTWLERELDALRTQQKHGNGQPANMPEYNAPALLELVREKEERILALEADMTKWEQKYLEESTIRHFAMNAAATAAAERDTTIINHSRNGSYGESSLEAHIWQEEEEVVQANRRCQDMEYTIKNLHAKIIEKDAMIKVLQQRSRKDAGKTDSSSLRPARSVPSIAAATGTHSRQTSLTSSQLAEEKKEEKTWKGSIGLLLGKEHHEHASAPLLPPPPTSALSSIASTTAASSAHAKTGSKDSSTQTDKSAELFWPSMASLPSRGRLSTTPAHSPVLKHPAAKGTAEKLENSPGHGKSPDHRGRVSSLLHKPEFPDGEMMEVLI
Take B3: the binding result is “binds”.
